From patent publication US20160228570A1 (QUEEN MARY AND WESTFIELD COLLEGE, published 2016)
Results are given in words; binding and its absence hold for the method and conditions named. Some binding calls cover weakened binding; strength is not graded here.

Sequences of proteins named here, by UniProt entry; tags and fusion partners are left off. Residues count along the entry.
UniProt P02459, residues 201-1214: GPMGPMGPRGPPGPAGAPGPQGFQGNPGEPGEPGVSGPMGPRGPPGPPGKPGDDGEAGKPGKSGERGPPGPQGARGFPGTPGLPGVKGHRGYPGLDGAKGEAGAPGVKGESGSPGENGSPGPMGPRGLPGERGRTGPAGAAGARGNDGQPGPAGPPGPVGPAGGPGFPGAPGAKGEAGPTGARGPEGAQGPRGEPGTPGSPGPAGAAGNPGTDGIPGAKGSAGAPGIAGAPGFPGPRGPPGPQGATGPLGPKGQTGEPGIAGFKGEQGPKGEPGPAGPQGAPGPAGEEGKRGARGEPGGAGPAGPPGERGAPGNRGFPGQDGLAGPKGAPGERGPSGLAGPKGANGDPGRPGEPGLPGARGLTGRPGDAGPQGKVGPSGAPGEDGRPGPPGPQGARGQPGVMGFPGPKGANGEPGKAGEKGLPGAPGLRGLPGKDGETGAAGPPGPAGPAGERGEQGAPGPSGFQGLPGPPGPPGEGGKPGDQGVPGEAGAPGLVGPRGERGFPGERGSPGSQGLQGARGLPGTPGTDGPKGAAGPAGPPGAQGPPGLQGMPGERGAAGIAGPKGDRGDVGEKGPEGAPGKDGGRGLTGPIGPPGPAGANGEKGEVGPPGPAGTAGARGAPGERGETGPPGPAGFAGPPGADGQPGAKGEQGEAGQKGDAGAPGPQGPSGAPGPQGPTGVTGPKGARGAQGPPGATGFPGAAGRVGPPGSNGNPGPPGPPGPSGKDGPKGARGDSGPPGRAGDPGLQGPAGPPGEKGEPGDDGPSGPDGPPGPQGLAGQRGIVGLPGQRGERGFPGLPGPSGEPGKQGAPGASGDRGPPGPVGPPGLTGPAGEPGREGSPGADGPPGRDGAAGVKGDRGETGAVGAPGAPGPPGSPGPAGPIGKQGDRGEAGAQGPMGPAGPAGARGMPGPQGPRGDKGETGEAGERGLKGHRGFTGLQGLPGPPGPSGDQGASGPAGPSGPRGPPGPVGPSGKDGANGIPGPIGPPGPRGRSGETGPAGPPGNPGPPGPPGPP

Columns and labels:
HOCl modified CII [1] = molecular target: T1, HOCl modified CII (bovine, UniProt P02459 201-1214, modified with HOCl; residues not stated); experiment: ELISA, purified scFv on coated antigen
T1 construct: also called HOCl-CII; HOCl-Collagen II
Description: (§1) Screening for positive anti-modified CII phage clones was first performed by enzyme-linked immunosorbent assay (ELISA), as previously described (Harrison J. L, 1996). Microtiter plate (Nunc, Paisley, UK) wells were coated with 10 μg/ml native or modified CII and incubated with 100 μl phage suspension for 90 minutes. In addition, native and modified BSA were used as negative control. After removal of the supernatants, the amount of bound phage was determined using peroxidase-labeled anti-M13 antibodies (GE Healthcare: Ltd, Little Chalfont, Buckinghamshire) and developed by using 100 mM 3,3′5,5′ tetramethylbenzidine (TMB) as substrate. The reaction was monitored in an ELISA reader at 450 nm with a reference wavelength of 650 nm using GENios plate reader (TECAN, Theale Court, Reading UK) and Magellan software (TECAN, Theale Court, Reading UK)
(§2) The reactive phage clones obtained from E. coli TG-1 bacteria were used to infect E. coli HB2151 non-suppressor bacterial strain to obtain soluble scFv. […] Binding of purified scFv to modified CII was first analyzed by ELISA as above except that mouse anti-myc tag antibody (Santa Cruz Biotechnology, INC, Wembley, UK) followed by anti-mouse-HRP conjugate (Sigma, Dorset, UK) were used to probe bound scFv.

ribose-modified CII [2] = molecular target: T2, ribose-modified CII (bovine, UniProt P02459 201-1214, glycated with 2M ribose, overnight at 37 C; residues not stated); experiment: ELISA, purified scFv on coated antigen
T2 construct: also called Ribose-CII; glycated CII
Description: as §1, §2

HOCl modified CII [3] = molecular target: T1, HOCl modified CII; experiment: phage ELISA screen; Antigen column of Table 3
ribose-modified CII [4] = molecular target: T2, ribose-modified CII; experiment: phage ELISA screen; Antigen column of Table 3
[5] = molecular target: native non-modified collagen type II (CII) (bovine) (UniProt P02459); experiment: Western blot, 10 ug/ml scFv as probe on denatured CII
[6] = molecular target: native non-modified collagen type II (CII) (bovine) (UniProt P02459); experiment: ELISA, purified scFv on coated antigen
peroxynitrated CII = molecular target: T3, peroxynitrated CII (bovine, UniProt P02459 201-1214, modified with peroxynitrite (ONOO); residues not stated); experiment: ELISA, purified scFv on coated antigen
T3 construct: also called CII modified with ONOO; peroxynitrite-modified CII
Description: as §1, §2

[7] = substrate: CII modified with hydroxyl radical (OH) (bovine) (UniProt P02459); experiment: ELISA, purified scFv on coated antigen

Binder | binding (HOCl modified CII [3]) | binding (ribose-modified CII [4]) | other results
scFv 1-1C (scFv) scFv: EVQLLESGGGLVQPGGSLRLSCAASGFTFSSYAMSWVRQAPGKGLEWVSSISYTGNSTDYADSVKGRFTISRDNSKNTLYLQMNSLRAEDTAVYYCAKGYTAFDYWGQGTLVTVSSGGGGSGGGGSGGGGSTDIQMTQSPSSLSASVGDRVTITCRASQSISSYLNWYQQKPGKAPKLLIYYASYLQSGVPSRFSGSGSGTDFTLTISSLQPEDFATYYCQQADSTPTTFGQGTKVEIKR | binds | binds | 
scFv 6-11D (scFv, not shown: small tags and cut ends, also called clone 6-11D; 4-5H) scFv: EVQLLESGGGLVQPGGSLRLSCAASGFTFSSYAMSWVRQAPGKGLEWVSSIDTGGSYTDYADSVKGRFTISRDNSKNTLYLQMNSLRAEDTAVYYCAKSYTTFDYWGQGTLVTVSSGGGGSGGGGSGGGGSTDIQMTQSPSSLSASVGDRVTITCRASQSISSYLNWYQQKPGKAPKLLIYSASYLQSGVPSRFSGSGSGTDFTLTISSLQPEDFATYYCQQGSNSPTTFGQGTKVEIKR | binds | binds | binding [6]: binds; binding (HOCl modified CII [1]): binds; binding (ribose-modified CII [2]): binds; binding (peroxynitrated CII): binds; binding [7]: binds
scFv 1-4D (scFv) scFv: EVQLLESGGGLVQPGGSLRLSCAASGFTFSSYAMSWVRQAPGKGLEWVSSIASTGDSTYYADSVKGRFTISRDNSKNTLYLQMNSLRAEDTAVYYCAKNYSSFDYWGQGTLVTVSSGGGGSGGGGSGGGGSTDIQMTQSPSSLSASVGDRVTITCRASQSISSYLNWYQQKPGKAPKLLIYSASALQSGVPSRFSGSGSGTDFTLTISSLQPEDFATYYCQQASNYPTTFGQGTKVEIKR | binds | binds | 
scFv 1-4H (scFv) scFv: EVQLLESGGGLVQPGGSLRLSCAASGFTFSSYAMSWVRQAPGKGLEWVSSIDAGGNGTYYADSVKGRFTISRDNSKNTLYLQMNSLRAEDTAVYYCAKNYSSFDYWGQGTLVTVSSGGGGSGGGGSGGGGSTDIQMTQSPSSLSASVGDRVTITCRASQSISSYLNWYQQKPGKAPKLLIYYASSLQSGVPSRFSGSGSGTDFTLTISSLQPEDFATYYCQQSDAYPTTFGQGTKVEIKR | binds | binds | 
scFv 1-6G (scFv) scFv: EVQLLESGGGLVQPGGSLRLSCAASGFTFSSYAMSWVRQAPGKGLEWVSSISTAGTYTDYADSVKGRFTISRDNSKNTLYLQMNSLRAEDTAVYYCAKNYTDFDYWGQGTLVTVSSGGGGSGGGGSGGGGSTDIQMTQSPSSLSASVGDRVTITCRASQSISSYLNWYQQKPGKAPKLLIYSASYLQSGVPSRFSGSGSGTDFTLTISSLQPEDFATYYCQQSNTSPATFGQGTKVEIKR | binds | binds | 
scFv 1-10D (scFv) scFv: EVQLLESGGGLVQPGGSLRLSCAASGFTFSSYAMSWVRQAPGKGLEWVSSIDASGANTAYADSVKGRFTISRDNSKNTLYLQMNSLRAEDTAVYYCAKTYGTFDYWGQGTLVTVSSGGGGSGGGGSGGGGSTDIQMTQSPSSLSASVGDRVTITCRASQSISSYLNWYQQKPGKAPKLLIYSASYLQSGVPSRFSGSGSGTDFTLTISSLQPEDFATYYCQQSATTPDTFGQGTKVEIKR |  | binds | 

The next lines start with results.

binding (HOCl modified CII [3]) | binding (ribose-modified CII [4]) | Binder | other results
binds | binds | scFv 1-11E (scFv, not shown: large carriers; small tags and cut ends, its first MA and last DI may come from cloning into the fusion; also called clone 1-11E; 1-2F) scFv: EVQLLESGGGLVQPGGSLRLSCAASGFTFSSYAMSWVRQAPGKGLEWVSSIDDSGATTYYADSVKGRFTISRDNSKNTLYLQMNSLRAEDTAVYYCAKNYSSFDYWGQGTLVTVSSGGGGSGGGGSGGGGSTDIQMTQSPSSLSASVGDRVTITCRASQSISSYLNWYQQKPGKAPKLLIYYASSLQSGVPSRFSGSGSGTDFTLTISSLQPEDFATYYCQQAANYPTTFGQGTKVEIK | binding (HOCl modified CII [1]): binds; binding (ribose-modified CII [2]): binds; binding [5]: binds
 | binds | scFv 4-3H (scFv) scFv: EVQLLESGGGLVQPGGSLRLSCAASGFTFSSYAMSWVRQAPGKGLEWVSTITSTGAATAYADSVKGRFTISRDNSKNTLYLQMNSLRAEDTAVYYCAKSYATFDYWGQGTLVTVSSGGGGSGGGGSGGGGSTDIQMTQSPSSLSASVGDRVTITCRASQSISSYLNWYQQKPGKAPKLLIYAASYLQSGVPSRFSGSGSGTDFTLTISSLQPEDFATYYCQQAANSPDTFGQGTKVEIKR | 
binds | binds | scFv 4-11F (scFv) scFv: EVQLLESGGGLVQPGGSLRLSCAASGFTFSSYAMSWVRQAPGKGLEWVSSISATGSSTYYADSVKGRFTISRDNSKNTLYLQMNSLRAEDTAVYYCAKNYSDFDYWGQGTLVTVSSGGGGSGGGGSGGGGSTDIQMTQSPSSLSASVGDRVTITCRASQSISSYLNWYQQKPGKAPKLLIYSASDLQSGVPSRFSGSGSGTDFTLTISSLQPEDFATYYCQQSSYTPTTFGQGTKVEIKR | 
 | binds | scFv 1-2E (scFv) scFv: EVQLLESGGGLVQPGGSLRLSCAASGFTFSSYAMSWVRQAPGKGLEWVSSITDSGDTTYYADSVKGRFTISRDNSKNTLYLQMNSLRAEDTAVYYCAKNYSTFDYWGQGTLVTVSSGGGGSGGGGSGGGGSTDIQMTQSPSSLSASVGDRVTITCRASQSISSYLNWYQQKPGKAPKLLIYSASSLQSGVPSRFSGSGSGTDFTLTISSLQPEDFATYYCQQSNATPTTFGQGTKVEIKR | 
binds | binds | scFv 1-12A (scFv) scFv: EVQLLESGGGLVQPGGSLRLSCAASGFTFSSYAMSWVRQAPGKGLEWVSSISNSGTNTDYADSVKGRFTISRDNSKNTLYLQMNSLRAEDTAVYYCAKNYASFDYWGQGTLVTVSSGGGGSGGGGSGGGGSTDIQMTQSPSSLSASVGDRVTITCRASQSISSYLNWYQQKPGKAPKLLIYYASYLQSGVPSRFSGSGSGTDFTLTISSLQPEDFATYYCQQGSASPSTFGQGTKVEIKR | 
